In paper PMC3794912:
Results are given in words; binding and its absence hold for the method and conditions named. Binding seen in cells or lysates may run through a third protein. Binding calls can cover weak binding; strength is not graded here. For some of these results: Sequences can lack the tags named with a protein.

Legend:
[1] = target: T1, Mms19::F[3] (S. cerevisiae) (UniProt P40469); test: split reporter; mDHFR protein-fragment complementation assay (PCA) in living S. cerevisiae; fragments F[1,2] and F[3] fused at the C-termini; read-out growth or colony size on medium with 200 µg/ml methotrexate (serial dilutions, robotic pinning, genome-wide rPCA screens)
T1 sequence: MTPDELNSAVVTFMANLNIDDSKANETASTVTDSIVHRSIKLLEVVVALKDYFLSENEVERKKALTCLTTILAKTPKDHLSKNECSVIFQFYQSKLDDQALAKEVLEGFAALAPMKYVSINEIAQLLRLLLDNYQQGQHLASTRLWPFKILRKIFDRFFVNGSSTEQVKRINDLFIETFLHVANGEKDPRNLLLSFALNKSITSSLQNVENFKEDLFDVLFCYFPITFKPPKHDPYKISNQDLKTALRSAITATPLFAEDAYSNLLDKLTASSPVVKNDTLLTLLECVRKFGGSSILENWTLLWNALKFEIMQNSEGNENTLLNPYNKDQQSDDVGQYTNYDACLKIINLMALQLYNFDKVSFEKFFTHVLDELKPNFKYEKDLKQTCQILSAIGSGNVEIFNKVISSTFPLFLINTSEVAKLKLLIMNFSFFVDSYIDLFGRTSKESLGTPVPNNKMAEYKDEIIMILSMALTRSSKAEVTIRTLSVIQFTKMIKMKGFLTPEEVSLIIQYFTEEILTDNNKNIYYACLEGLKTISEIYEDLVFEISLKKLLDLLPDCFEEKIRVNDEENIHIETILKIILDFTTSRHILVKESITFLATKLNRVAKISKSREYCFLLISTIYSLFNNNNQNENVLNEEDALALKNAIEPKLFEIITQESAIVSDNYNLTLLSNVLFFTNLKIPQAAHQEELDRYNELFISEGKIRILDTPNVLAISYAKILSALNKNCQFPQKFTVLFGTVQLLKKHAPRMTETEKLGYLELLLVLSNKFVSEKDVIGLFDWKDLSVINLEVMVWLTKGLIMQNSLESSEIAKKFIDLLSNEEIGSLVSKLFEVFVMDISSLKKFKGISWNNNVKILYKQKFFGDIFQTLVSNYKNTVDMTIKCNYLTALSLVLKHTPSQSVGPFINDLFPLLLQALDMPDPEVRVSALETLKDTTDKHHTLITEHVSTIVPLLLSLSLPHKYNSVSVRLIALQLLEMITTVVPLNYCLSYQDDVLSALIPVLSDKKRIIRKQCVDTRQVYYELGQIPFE

Cia2-Myc (S. cerevisiae) = test: co-IP; yeast whole-cell extracts in buffer B60; IP with anti-myc antibody and protein A-G-agarose, washes up to 270 mM potassium acetate; blots with anti-GFP or anti-TAP; cells depleted of Cia1 (GAL1-CIA1 in 2% glucose for 24 h) or carrying Ts alleles of CIA1, DNA2, POL3 or SPC24 grown 24 h at 35°C, against controls

In the case of Cia2-C161A::F[3] (S. cerevisiae), the binding [1] is reported as “binds”.

With Cia2::F[1,2] (S. cerevisiae) the binding [1] was “binds”.

B1: Mms19-GFP (protein, UniProt P40469 1-1032)
chain: T1 sequence
B1 was tested, and the binding (Cia2-Myc (S. cerevisiae)) was “binds”.

B2: Mms19-TAP (protein, UniProt P40469 1-1032)
chain: T1 sequence
For B2, the binding (Cia2-Myc (S. cerevisiae)) was “binds”.
